Publication PMC8353525
These are yes or no findings as the source states them, for the method shown. Binding seen in cells or lysates may run through a third protein. Some entries that bind do so weakly or less than the wild type.

By UniProt entry, the sequences of proteins in these tests, tags left out. Where a name states a change or a piece, a line headed by the entry shows the natural chain unless it says otherwise. Chains listed by the source or under a name are the forms on record and can include a tag or linker.
Yes-associated protein 1 (P46938-2, form named): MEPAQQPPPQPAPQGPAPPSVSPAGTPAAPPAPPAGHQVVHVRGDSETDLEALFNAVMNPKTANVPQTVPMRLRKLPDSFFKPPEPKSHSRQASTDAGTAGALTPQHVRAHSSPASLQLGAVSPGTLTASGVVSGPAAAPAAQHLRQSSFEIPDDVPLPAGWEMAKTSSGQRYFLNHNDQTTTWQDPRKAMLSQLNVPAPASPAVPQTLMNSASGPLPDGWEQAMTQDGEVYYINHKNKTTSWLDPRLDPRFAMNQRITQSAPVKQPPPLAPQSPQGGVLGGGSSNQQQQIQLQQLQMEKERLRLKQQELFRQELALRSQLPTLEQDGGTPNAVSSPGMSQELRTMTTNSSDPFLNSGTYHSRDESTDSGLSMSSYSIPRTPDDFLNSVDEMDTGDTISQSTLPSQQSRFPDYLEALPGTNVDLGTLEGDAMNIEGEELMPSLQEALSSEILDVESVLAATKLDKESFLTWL
UniProt Q8BUN5: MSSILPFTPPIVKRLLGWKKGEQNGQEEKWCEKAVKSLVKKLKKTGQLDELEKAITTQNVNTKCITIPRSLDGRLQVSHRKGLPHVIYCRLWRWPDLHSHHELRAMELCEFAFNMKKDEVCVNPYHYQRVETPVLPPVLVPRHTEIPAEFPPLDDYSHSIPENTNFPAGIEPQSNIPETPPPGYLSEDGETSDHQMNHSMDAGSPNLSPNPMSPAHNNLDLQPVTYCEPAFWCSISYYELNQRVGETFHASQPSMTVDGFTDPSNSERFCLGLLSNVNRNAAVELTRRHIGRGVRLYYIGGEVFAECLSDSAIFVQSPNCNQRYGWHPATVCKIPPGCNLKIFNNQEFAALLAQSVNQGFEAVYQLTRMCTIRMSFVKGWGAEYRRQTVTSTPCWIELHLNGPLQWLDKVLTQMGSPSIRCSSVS
UniProt P97471: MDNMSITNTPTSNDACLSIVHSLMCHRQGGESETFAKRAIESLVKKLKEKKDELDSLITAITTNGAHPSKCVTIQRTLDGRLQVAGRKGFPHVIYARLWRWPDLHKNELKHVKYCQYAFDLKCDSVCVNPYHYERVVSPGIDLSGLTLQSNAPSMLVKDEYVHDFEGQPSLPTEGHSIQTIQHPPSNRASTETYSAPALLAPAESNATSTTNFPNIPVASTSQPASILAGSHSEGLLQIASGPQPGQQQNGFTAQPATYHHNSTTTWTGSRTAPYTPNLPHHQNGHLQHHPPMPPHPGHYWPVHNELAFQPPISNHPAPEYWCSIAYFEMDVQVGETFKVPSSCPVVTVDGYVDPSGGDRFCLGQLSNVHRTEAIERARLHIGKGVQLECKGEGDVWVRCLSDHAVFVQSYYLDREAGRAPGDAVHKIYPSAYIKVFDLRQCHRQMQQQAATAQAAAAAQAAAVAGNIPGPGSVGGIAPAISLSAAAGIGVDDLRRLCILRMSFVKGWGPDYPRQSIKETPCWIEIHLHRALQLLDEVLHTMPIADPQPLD

Key:
[1] = target: Yes-associated protein 1 (mouse (endogenous in mouse lung EC)) (UniProt P46938); test: co-IP; IP of YAP from the nuclear or the cytosolic fraction of wild-type EC treated with TGFβ for 45 min; western blot
[2] = target: SMAD3 (mouse (endogenous in mouse lung EC)) (UniProt Q8BUN5); test: co-IP; IP of SMAD3 from total cell extracts of YAP wild-type and knockout EC, untreated or TGFβ 45 min; lysis buffer 50 mM Tris-HCl pH 7.4, 150 mM NaCl, 2 mM CaCl2, 0.1% Triton X-100, 0.1% NP-40; overnight at 4°C on protein A or G Sepharose; western blot
[3] = target: SMAD4 (mouse (endogenous in mouse lung EC)) (UniProt P97471); test: co-IP; IP of SMAD4 from total cell lysate of YAP wild-type and knockout EC, with or without TGFβ for 2 h; species-matching antibody as negative control; western blot

Row | binding [1] | binding [2] | binding [3] | Substance
1 | binds |  |  | SMAD3 (from UniProt Q8BUN5 1-425)
2 |  | binds |  | SMAD4 (from UniProt P97471 1-551)
3 |  | binds | no binding | Yes-associated protein 1 (from UniProt P46938-2 1-472)
